Measurements from PubChem BioAssay (Tox21).
The inconclusive results got no clear call from the source; some entries with a clear call stand among them for comparison. Potencies of inconclusive entries are doubtful fits and often do not repeat. Calls of active or inactive are those of the source. Calls follow the shape of the full dose curve.

The chains behind the UniProt entries cited, without tags or fusion partners. Where a name states a change or a piece, a line headed by the entry shows the natural chain unless it says otherwise.
UniProt P28223, whole entry, looked up: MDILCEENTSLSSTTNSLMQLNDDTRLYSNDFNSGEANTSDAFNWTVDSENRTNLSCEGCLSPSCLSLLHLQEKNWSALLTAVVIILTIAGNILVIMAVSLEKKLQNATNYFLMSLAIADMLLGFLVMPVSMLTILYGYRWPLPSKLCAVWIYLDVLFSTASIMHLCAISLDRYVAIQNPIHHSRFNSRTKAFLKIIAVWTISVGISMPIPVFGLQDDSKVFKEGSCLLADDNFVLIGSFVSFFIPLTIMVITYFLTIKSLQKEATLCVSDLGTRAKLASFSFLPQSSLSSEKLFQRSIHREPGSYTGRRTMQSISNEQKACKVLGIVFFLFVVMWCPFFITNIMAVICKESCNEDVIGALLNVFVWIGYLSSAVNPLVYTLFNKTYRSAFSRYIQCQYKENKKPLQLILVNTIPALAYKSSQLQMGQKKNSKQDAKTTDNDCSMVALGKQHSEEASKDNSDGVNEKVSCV
UniProt P11229: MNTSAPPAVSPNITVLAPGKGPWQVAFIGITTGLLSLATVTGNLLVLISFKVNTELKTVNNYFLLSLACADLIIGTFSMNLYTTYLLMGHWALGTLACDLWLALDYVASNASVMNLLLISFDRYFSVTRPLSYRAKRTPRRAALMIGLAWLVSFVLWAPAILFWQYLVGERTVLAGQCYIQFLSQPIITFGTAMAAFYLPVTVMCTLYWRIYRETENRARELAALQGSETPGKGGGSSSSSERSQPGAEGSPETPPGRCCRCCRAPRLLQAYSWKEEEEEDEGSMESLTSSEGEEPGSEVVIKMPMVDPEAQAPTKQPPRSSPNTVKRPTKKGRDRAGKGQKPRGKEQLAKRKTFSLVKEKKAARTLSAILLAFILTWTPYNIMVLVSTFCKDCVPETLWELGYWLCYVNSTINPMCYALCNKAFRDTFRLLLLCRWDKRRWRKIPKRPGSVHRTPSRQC

Target: 5-hydroxytryptamine receptor 2A (Homo sapiens) (UniProt P28223)
Test: 5-hydroxytryptamine receptor 2A (HTR2A) small molecule antagonists, cell-based qHTS assay (AID 1963586); also: nearly all actives have a fitted effect of over 45% in size
Conditions: HTR2A-CHO cells, DOI-induced calcium flux, fluorescence; series mostly up to 61.5 µM
Summary of the method: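 CHO cells stably expressing human HTR2A were plated for 18 h at 37 C, then loaded with calcium dye for 1 h. Compounds were preincubated 5 min at room temperature before DOI (4 nM solution) was added. Kinetic fluorescence was read for 3 min.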
Potency is read from the fitted curve at half-maximal effect.

Structure (SMILES)	Potency
CCCCNc1cc(C(=O)O)cc(S(N)(=O)=O)c1Oc1ccccc1	inconclusive: 0.065 µM [inhibitor, full curve, poor fit]
COc1cccc(CCc2ccccc2OCC(CN(C)C)OC(=O)CCC(=O)O)c1 (stereo unspecified)	active: 7.29 µM
C=C(C)C1CCC(C)CC1O (stereo unspecified)	inactive
CCCC(C(=O)OCCN(CC)CC)(c1ccccc1)c1ccccc1	inconclusive: 20.5 µM [inhibitor, single point]
CN(C)[C@@H]1C(=O)C(C(N)=O)=C(O)[C@@]2(O)C(=O)C3=C(O)c4c(O)ccc(Cl)c4[C@@H](O)[C@H]3C[C@@H]12	inactive
CN(C)CCCSc1ccccc1NC(=O)/C=C/c1ccccc1	inconclusive: 4.1 µM [inhibitor, full curve, poor fit]
C[Si](C)(C)C	inconclusive: 8.98 µM [inhibitor, single point]
NCc1ccc(S(N)(=O)=O)cc1	inactive
CC(C)OC(=O)c1ccccc1C(=O)OC(C)C	inconclusive: 0.942 µM [inhibitor, single point]
CC1=NN(c2ccc(C(=O)O)cc2)C(=O)C1	inactive
CC1=CC(O)CC(C)(C)C1 (stereo unspecified)	inactive
O=S(=O)(O)c1ccc2cc(O)ccc2c1	inconclusive: 0.0042 µM [inhibitor, full curve]
CC(C)OP(=O)(CP(=O)(OC(C)C)OC(C)C)OC(C)C	inconclusive: 23.1 µM [inhibitor, single point]
COc1cc(OC)cc(OC)c1	inactive
O=CCc1ccccc1	inconclusive: 0.0033 µM [inhibitor, full curve]
OC[C@@H](O)[C@@H](O)CO	inconclusive: 4.73 µM [inhibitor, single point]
OB(O)O	inactive
O=C1OCc2ccccc21	inconclusive: 47.2 µM [inhibitor, single point]

Target: Muscarinic acetylcholine receptor M1 (Homo sapiens) (UniProt P11229)
Test: Cholinergic receptor muscarinic 1 (CHRM1) small molecule antagonists, cell-based qHTS assay (AID 1963588); also: nearly all actives have a fitted effect of over 40% in size
Conditions: CHRM1-CHO antagonist mode, calcium flux fluorescence; series mostly up to 61.5 µM
Summary of the method: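 Compounds were tested at 15 concentrations in three independent runs. Dye-loaded CHRM1-CHO cells were exposed 5 min at room temperature before stimulation by acetylcholine added at 50nM. Intracellular calcium was read kinetically on FDSS for 3 min.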

Structure (SMILES)	Potency
CCCCNc1cc(C(=O)O)cc(S(N)(=O)=O)c1Oc1ccccc1	inconclusive: 4.1 µM [inhibitor, partial curve, poor fit]
OC[C@@H](O)[C@@H](O)CO	inactive
CCCCCCCCCCCC(=O)Cl	inconclusive: 0.0168 µM [inhibitor, full curve, poor fit]
